According to patent US20160289321A1:
These are yes or no findings as the source states them, for the method shown. Some binding calls cover weakened binding; strength is not graded here.

Target: Cyno IL-17A (cynomolgus)
Test: told from the Hs27 GROα bioassay, not a direct binding assay

B1: Hu049-17 (antibody, V domains shown)
VH: EVQLVQSGAEVKKPGASVKVSCKASGYTFTDYEVHWVRQAPGQGLEWMGVIDPGTGGVAYNQKFEGRVTMTTDTSTSTAYMELRSLRSDDTAVYYCTRYSLFYGSSPYAMDYWGQGTLVTVSS
VL: EIVLTQSPDFQSVTPKEKVTITCSASSSVNYMHWFQQKPDQSPKLWIYRTSNLASGVPSRFSGSGSGTDYTLTINSLEAEDAATYYCQQRSSYPWTFGQGTKLEIKR
binding: binds

B2: Hu049-18 (antibody, V domains shown)
VH: EVQLVQSGAEVKKPGASVKVSCKASGYTFTDYEVHWVRQAPGQGLEWMGVIDPGTGGVAYNQKFEGRVTMTADTSTSTAYMELRSLRSDDTAVYYCTRYSLFYGSSPYAMDYWGQGTLVTVSS
VL: EIVLTQSPDFQSVTPKEKVTITCSASSSVNYMHWFQQKPDQSPKLWIYRTSNLASGVPSRFSGSGSGTDYTLTINSLEAEDAATYYCQQRSSYPWTFGQGTKLEIKR
binding: binds

B3: Hu049-19 (antibody, V domains shown)
VH: EVQLVQSGAEVKKPGASVKVSCKASGYTFTDYEVHWVRQAPGQGLEWIGVIDPGTGGVAYNQKFEGRVTMTADTSTSTAYMELRSLRSDDTAVYYCTRYSLFYGSSPYAMDYWGQGTLVTVSS
VL: EIVLTQSPDFQSVTPKEKVTITCSASSSVNYMHWFQQKPDQSPKLWIYRTSNLASGVPSRFSGSGSGTDYTLTINSLEAEDAATYYCQQRSSYPWTFGQGTKLEIKR
binding: binds

B4: Hu049-20 (antibody, V domains shown)
VH: EVQLVQSGAEVKKPGASVKVSCKASGYTFTDYEVHWVRQAPGQGLEWIGVIDPGTGGVAYNQKFEGRATLTADDSTNTAYMELRSLRSDDTAVYYCTRYSLFYGSSPYAMDYWGQGTLVTVSS
VL: EIVLTQSPDFQSVTPKEKVTITCSASSSVNYMHWFQQKPDQSPKLWIYRTSNLASGVPSRFSGSGSGTDYTLTINSLEAEDAATYYCQQRSSYPWTFGQGTKLEIKR
binding: binds
